Reference: paper PMC9134915
No constants are given. Whether binding was seen depends on the method and setting. In cells and extracts the contact can be indirect. Some results given as binding are weak or reduced against the parent protein; the word gives no strength.

Chains of the proteins cited; added tags and fusions are not shown.
UniProt P08754: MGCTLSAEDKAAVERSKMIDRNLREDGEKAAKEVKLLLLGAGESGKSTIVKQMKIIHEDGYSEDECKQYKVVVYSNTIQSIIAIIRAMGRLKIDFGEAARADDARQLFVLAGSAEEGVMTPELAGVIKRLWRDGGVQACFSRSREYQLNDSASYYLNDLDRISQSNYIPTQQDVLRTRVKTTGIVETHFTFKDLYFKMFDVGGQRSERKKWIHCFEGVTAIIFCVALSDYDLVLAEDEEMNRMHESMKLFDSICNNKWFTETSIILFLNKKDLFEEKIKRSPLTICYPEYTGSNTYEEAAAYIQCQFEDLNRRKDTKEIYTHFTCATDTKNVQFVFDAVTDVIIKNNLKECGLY
UniProt P04899: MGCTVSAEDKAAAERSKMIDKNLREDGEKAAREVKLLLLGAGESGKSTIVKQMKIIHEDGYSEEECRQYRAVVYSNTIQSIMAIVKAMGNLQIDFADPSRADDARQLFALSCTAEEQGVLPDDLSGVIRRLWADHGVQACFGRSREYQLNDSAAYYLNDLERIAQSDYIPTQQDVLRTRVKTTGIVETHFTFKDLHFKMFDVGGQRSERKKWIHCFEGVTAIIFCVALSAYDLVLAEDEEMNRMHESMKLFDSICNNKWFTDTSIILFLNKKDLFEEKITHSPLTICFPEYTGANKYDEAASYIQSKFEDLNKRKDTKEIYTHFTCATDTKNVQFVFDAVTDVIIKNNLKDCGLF

Molecular target: T1, angiotensin II type 2 receptor (AGTR2), overexpressed from pCMV6-AGTR2 (human) (UniProt P50052)
T1 sequence: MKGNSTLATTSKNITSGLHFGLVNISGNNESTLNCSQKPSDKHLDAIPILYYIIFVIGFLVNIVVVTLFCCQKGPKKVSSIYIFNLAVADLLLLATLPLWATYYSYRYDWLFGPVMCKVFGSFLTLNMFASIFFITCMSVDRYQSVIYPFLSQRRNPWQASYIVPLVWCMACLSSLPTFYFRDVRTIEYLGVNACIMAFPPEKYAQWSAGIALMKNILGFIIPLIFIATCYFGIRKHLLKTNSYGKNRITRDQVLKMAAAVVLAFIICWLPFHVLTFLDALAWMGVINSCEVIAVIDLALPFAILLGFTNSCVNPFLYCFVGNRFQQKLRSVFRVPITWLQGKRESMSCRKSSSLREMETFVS
Experiment: co-IP; HEK293 cells transfected with AGTR2, Gαi-2/Gαi-3 and hsa-let-7a-2 or control plasmids for 24 h; extract precipitated with anti-AGTR2 antibody (or IgG) and protein A/G agarose at 4 °C; Gαi-2/Gαi-3 detected by western blot

Row | binding | Substance
1 | binds | Gαi-3 (from UniProt P08754 1-354)
2 | binds | Gαi-2 (from UniProt P04899 1-355)
